The text below walks through data of publication PMC5045167, “STN1 OB Fold Mutation Alters DNA Binding and Affects Selective Aspects of CST Function”.

The chains behind the UniProt entries cited, without tags or fusion partners.
UniProt Q96AP0: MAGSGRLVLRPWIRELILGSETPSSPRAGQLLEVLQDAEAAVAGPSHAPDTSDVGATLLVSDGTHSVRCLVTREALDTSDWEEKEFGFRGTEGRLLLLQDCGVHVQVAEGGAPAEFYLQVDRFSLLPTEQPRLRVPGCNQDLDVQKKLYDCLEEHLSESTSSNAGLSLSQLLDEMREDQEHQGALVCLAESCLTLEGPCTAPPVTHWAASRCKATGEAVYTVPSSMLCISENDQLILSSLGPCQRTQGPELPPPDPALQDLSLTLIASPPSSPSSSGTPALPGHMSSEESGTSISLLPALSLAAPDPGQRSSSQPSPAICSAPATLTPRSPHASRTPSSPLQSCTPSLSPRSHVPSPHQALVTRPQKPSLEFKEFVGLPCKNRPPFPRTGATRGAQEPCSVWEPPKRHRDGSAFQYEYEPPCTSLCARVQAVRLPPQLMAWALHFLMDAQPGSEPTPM

The target in test [1] is T1, FLAG-tagged STN1 (human) (UniProt Q9H668).
T1 sequence: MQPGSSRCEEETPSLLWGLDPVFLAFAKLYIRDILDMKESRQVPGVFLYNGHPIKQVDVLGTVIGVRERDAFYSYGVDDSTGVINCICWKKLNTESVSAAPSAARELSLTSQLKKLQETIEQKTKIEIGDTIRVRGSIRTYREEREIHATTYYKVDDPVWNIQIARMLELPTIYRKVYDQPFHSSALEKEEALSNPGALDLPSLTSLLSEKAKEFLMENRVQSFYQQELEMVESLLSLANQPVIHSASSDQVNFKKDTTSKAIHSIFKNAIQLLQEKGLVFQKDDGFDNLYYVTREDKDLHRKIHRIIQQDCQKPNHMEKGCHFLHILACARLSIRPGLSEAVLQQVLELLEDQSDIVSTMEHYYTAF
Description: co-IP; STN1 or STN1-OBM immunoprecipitated from whole cell lysate of TEN1 over-expressing HeLa cells transiently transfected with HA-CTC1 and FLAG-STN1 or FLAG-STN1-OBM; Western blot.

Test [2] addresses T2, FLAG-tagged STN1-OBM (STN1 OB-fold mutant, W89A, R139L, Y141A) (human) (UniProt Q9H668).
T2 sequence: T1 sequence with W89A, R139L, Y141A
The test is described as above.

Test [3] addresses T3, His-tagged STN1 (human) (UniProt Q9H668).
T3 sequence: T1 sequence
Description: tandem affinity purification (nickel resin, then FLAG beads), silver-stained gel; SF9 cells co-infected with baculovirus for FLAG-CTC1, His-STN1 or His-STN1-OBM and TEN1; lysis and nickel washes in 500 mM NaCl, FLAG beads washed in 200 mM NaCl, eluted with 3X FLAG peptide.

For test [4], the target named is T4, His-tagged STN1-OBM (W89A, R139L, Y141A) (human) (UniProt Q9H668).
T4 sequence: T1 sequence with W89A, R139L, Y141A
The test is described as above.

Test [5] addresses HA-mCherry tagged TPP1 (human) (UniProt Q96AP0). Description: co-IP; HEK293T transfected with HA-mCherry-TPP1 and FLAG-STN1 (WT or OBM); extract in 20 mM Tris pH 8.0, 100 mM NaCl, 1 mM MgCl2, 0.1% NP-40; TPP1 precipitated with HA antibody; Western blot.

Residue numbers refer to the chain shown, from its start. Numbers in names are those of the source. Results are given in words; binding and its absence hold for the method and conditions named. For some of these results: In cells and extracts the contact can be indirect. Some results given as binding are weak or reduced against the parent protein; the word gives no strength. Sequences can lack the tags named with a protein.

B1: TEN1 (over-expressed in HeLa cell line) (protein, UniProt Q86WV5 1-123)
chain: MMLPKPGTYYLPWEVSAGQVPDGSTLRTFGRLCLYDMIQSRVTLMAQHGSDQHQVLVCTKLVEPFHAQVGSLYIVLGELQHQQDRGSVVKARVLTCVEGMNLPLLEQAIREQRLYKQERGGSQ
B1: the binding entry in test [1] and in test [2] was “binds” each time.

B2: untagged TEN1 (protein, UniProt Q86WV5 1-123)
chain: B1 chain
B2: the binding entry in test [3] and in test [4] was “binds” each time.

B3: HA-CTC1 (protein, UniProt Q2NKJ3 1-1217)
chain: MAAGRAQVPSSEQAWLEDAQVFIQKTLCPAVKEPNVQLTPLVIDCVKTVWLSQGRNQGSTLPLSYSFVSVQDLKTHQRLPCCSHLSWSSSAYQAWAQEAGPNGNPLPREQLLLLGTLTDLSADLEQECRNGSLYVRDNTGVLSCELIDLDLSWLGHLFLFPRWSYLPPARWNSSGEGHLELWDAPVPVFPLTISPGPVTPIPVLYPESASCLLRLRNKLRGVQRNLAGSLVRLSALVKSKQKAYFILSLGRSHPAVTHVSIIVQVPAQLVWHRALRPGTAYVLTELRVSKIRGQRQHVWMTSQSSRLLLLKPECVQELELELEGPLLEADPKPLPMPSNSEDKKDPESLVRYSRLLSYSGAVTGVLNEPAGLYELDGQLGLCLAYQQFRGLRRVMRPGVCLQLQDVHLLQSVGGGTRRPVLAPCLRGAVLLQSFSRQKPGAHSSRQAYGASLYEQLVWERQLGLPLYLWATKALEELACKLCPHVLRHHQFLQHSSPGSPSLGLQLLAPTLDLLAPPGSPVRNAHNEILEEPHHCPLQKYTRLQTPSSFPTLATLKEEGQRKAWASFDPKALLPLPEASYLPSCQLNRRLAWSWLCLLPSAFCPAQVLLGVLVASSHKGCLQLRDQSGSLPCLLLAKHSQPLSDPRLIGCLVRAERFQLIVERDVRSSFPSWKELSMPGFIQKQQARVYVQFFLADALILPVPRPCLHSATPSTPQTDPTGPEGPHLGQSRLFLLCHKEALMKRNFCVPPGASPEVPKPALSFYVLGSWLGGTQRKEGTGWGLPEPQGNDDNDQKVHLIFFGSSVRWFEFLHPGQVYRLIAPGPATPMLFEKDGSSCISRRPLELAGCASCLTVQDNWTLELESSQDIQDVLDANKSLPESSLTDLLSDNFTDSLVSFSAEILSRTLCEPLVASLWMKLGNTGAMRRCVKLTVALETAECEFPPHLDVYIEDPHLPPSLGLLPGARVHFSQLEKRVSRSHNVYCCFRSSTYVQVLSFPPETTISIPLPHIYLAELLQGGQSPFQATASCHIVSVFSLQLFWVCAYCTSICRQGKCTRLGSTCPTQTAISQAIIRLLVEDGTAEAVVTCRNHHVAAALGLCPREWASLLDFVQVPGRVVLQFAGPGAQLESSARVDEPMTMFLWTLCTSPSVLRPIVLSFELERKPSKIVPLEPPRLQRFQCGELPFLTHVNPRLRLSCLSIRESEYSSSLGILASSC
Turning to B3, the binding result in test [1] and in test [2] was “binds” throughout.

B4: FLAG-tagged CTC1 (protein, UniProt Q2NKJ3 1-1217)
chain: B3 chain
B4: the binding entry in test [3] and in test [4] was “binds” in each case.

B5: FLAG-tagged STN1-OBM (W89A, R139L, Y141A) (protein, UniProt Q9H668 1-368)
chain: T1 sequence with W89A, R139L, Y141A
For B5, in test [5], the binding entry is “binds”.

B6: FLAG-tagged STN1 (protein, UniProt Q9H668 1-368)
chain: T1 sequence
Regarding B6, the binding entry in test [5] is given as “binds”.
